Results: publication PMC5365159
These are yes or no findings as the source states them, for the method shown. Some results given as binding are weak or reduced against the parent protein; the word gives no strength. Tags and fused reporters may be left off the sequences shown.

Sequences of proteins named here, by UniProt entry; tags and fusion partners are left off.
UniProt P19793: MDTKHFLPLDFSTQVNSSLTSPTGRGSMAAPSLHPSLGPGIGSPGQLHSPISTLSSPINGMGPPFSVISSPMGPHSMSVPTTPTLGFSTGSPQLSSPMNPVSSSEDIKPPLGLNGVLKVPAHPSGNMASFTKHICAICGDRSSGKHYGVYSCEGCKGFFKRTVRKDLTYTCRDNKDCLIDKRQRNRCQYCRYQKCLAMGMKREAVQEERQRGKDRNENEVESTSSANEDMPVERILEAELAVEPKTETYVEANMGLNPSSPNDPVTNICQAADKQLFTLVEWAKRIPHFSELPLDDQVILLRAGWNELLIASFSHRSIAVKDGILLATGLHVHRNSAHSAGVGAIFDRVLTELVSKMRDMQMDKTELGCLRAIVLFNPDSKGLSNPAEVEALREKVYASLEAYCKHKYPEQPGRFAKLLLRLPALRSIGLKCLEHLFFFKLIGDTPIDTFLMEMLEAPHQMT
UniProt Q60974: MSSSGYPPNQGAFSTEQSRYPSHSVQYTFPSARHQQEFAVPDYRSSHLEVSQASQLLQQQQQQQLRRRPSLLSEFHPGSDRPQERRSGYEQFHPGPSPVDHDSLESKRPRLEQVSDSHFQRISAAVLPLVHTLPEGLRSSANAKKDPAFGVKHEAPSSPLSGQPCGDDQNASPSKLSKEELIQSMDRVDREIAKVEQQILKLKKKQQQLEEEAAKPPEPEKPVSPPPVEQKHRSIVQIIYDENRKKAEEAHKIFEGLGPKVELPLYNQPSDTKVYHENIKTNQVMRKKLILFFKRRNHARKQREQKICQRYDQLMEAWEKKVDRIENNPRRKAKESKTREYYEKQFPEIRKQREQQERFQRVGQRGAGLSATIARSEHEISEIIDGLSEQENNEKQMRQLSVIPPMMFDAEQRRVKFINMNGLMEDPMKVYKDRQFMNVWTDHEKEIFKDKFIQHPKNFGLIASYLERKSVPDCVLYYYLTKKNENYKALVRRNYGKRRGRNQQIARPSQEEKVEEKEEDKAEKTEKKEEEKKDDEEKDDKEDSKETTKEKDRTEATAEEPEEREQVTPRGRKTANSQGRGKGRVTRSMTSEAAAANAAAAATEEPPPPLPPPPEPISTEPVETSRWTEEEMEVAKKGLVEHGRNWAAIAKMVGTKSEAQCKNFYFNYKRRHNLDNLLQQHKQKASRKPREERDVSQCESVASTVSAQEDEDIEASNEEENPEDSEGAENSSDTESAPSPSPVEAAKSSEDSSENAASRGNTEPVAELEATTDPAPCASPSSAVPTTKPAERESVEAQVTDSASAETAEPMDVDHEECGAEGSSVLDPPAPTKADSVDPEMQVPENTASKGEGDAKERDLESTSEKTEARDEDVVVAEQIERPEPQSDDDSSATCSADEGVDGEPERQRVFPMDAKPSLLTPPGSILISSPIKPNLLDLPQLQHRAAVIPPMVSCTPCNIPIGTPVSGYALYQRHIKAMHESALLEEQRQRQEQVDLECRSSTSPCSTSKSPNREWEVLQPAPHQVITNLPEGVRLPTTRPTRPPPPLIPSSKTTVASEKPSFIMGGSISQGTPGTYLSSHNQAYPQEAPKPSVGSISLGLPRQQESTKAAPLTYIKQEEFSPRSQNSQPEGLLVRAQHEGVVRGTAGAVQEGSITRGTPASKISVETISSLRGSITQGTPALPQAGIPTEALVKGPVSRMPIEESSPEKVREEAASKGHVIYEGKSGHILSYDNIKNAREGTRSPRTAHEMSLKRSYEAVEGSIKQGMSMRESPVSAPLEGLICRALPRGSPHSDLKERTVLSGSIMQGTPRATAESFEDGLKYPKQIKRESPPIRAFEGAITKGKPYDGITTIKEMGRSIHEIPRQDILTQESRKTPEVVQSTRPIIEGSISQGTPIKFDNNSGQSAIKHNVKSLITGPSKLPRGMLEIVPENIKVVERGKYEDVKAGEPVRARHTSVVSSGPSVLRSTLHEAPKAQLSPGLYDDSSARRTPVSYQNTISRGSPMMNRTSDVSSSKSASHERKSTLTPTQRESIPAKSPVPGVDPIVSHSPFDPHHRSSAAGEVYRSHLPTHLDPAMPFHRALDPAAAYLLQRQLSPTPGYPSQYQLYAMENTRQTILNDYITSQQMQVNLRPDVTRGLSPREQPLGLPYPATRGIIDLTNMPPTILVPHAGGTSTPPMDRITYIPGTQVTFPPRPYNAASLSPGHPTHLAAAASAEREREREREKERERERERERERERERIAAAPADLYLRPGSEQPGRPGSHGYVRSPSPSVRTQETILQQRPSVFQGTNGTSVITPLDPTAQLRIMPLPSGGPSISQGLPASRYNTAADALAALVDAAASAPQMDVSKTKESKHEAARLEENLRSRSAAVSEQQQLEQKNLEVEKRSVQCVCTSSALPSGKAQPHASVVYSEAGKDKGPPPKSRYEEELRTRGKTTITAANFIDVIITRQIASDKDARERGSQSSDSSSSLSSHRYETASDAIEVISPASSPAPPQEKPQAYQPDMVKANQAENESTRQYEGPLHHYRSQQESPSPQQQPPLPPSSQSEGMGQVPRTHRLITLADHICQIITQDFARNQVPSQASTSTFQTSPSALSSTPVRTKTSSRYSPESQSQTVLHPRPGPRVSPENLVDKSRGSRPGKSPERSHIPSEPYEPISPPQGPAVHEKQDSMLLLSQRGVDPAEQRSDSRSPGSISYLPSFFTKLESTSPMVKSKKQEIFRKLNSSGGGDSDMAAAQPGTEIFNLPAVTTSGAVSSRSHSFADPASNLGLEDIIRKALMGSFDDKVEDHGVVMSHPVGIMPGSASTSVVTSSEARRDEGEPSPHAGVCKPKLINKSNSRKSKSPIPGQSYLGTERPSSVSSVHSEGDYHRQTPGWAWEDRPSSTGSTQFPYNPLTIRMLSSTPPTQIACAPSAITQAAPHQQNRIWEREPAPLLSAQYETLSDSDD
UniProt Q61026: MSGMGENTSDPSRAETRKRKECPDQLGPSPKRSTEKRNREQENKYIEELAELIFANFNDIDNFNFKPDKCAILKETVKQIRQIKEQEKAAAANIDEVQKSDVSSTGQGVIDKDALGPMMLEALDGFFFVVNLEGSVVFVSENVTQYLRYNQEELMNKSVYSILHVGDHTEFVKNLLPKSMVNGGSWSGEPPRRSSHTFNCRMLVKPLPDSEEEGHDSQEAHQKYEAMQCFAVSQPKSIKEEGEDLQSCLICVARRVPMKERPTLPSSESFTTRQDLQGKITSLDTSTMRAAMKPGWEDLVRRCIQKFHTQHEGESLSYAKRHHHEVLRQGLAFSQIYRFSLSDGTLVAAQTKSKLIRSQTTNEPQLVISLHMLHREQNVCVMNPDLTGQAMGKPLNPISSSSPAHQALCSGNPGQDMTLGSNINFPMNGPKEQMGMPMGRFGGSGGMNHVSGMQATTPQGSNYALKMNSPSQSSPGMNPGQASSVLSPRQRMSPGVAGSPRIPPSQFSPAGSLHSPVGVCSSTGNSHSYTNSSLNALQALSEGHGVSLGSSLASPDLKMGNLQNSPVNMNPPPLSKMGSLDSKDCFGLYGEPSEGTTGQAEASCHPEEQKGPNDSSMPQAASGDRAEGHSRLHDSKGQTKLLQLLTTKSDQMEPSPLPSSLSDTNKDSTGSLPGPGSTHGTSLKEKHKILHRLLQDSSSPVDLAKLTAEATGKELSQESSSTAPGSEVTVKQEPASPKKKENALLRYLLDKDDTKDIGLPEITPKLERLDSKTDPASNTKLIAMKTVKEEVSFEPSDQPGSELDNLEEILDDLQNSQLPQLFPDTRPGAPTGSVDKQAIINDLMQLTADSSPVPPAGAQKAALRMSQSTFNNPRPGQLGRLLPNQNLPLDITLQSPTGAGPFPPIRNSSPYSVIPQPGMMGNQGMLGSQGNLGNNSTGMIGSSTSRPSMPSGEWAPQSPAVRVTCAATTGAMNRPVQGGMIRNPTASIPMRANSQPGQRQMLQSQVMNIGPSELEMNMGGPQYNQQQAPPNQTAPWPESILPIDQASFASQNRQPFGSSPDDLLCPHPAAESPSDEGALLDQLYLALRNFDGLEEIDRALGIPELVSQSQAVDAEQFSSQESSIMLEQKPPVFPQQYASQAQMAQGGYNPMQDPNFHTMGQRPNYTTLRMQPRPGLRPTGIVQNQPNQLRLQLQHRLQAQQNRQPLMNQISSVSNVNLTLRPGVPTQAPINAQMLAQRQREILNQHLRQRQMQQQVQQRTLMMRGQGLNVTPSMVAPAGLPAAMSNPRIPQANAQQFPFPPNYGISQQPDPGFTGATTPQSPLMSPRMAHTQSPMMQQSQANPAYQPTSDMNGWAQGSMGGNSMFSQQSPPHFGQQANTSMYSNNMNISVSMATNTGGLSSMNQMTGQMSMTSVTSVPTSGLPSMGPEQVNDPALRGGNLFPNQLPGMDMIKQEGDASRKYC

What was measured:
Experiment in all cases: two-hybrid; mammalian two-hybrid in HEK293 cells: VDR-VP16 with cofactor-GAL4 and the MH100(UAS)x4-tk-LUC reporter; cells treated with vehicle or increasing concentrations of 1,25(OH)2D3; luciferase normalised to β-galactosidase
[1] = target: retinoid X receptor alpha, GAL4 fusion (RXRα-GAL4-pCMX) (human) (UniProt P19793)
[2] = target: corepressor NCoR, GAL4 fusion (NCoR-GAL4-pCMX) (UniProt Q60974)
[3] = target: coactivator GRIP1, GAL4 fusion (GRIP1-GAL4-pCMX) (UniProt Q61026)

Row | binding [1] | binding [2] | binding [3] | Binder
1 | binds | binds | binds | wild-type human vitamin D receptor, VP16 fusion (hVDR-VP16-pCMX) (receptor, UniProt P11473 1-427) MEAMAASTSLPDPGDFDRNVPRICGVCGDRATGFHFNAMTCEGCKGFFRRSMKRKALFTCPFNGDCRITKDNRRHCQACRLKRCVDIGMMKEFILTDEEVQRKREMILKRKEEEALKDSLRPKLSEEQQRIIAILLDAHHKTYDPTYSDFCQFRPPVRVNDGGGSHPSRPNSRHTPSFSGDSSSSCSDHCITSSDMMDSSSFSNLDLSEEDSDDPSVTLELSQLSMLPHLADLVSYSIQKVIGFAKMIPGFRDLTSEDQIVLLKSSAIEVIMLRSNESFTMDDMSWTCGNQDYKYRVSDVTKAGHSLELIEPLIKFQVGLKKLNLHEEEHVLLMAICIVSPDRPGVQDAALIEAIQDRLSNTLQTYIRCRHPPPGSHLLYAKMIQKLADLRSLNEEHSKQYRCLSFQPECSMKLTPLVLEVFGNEIS
2 | binds | binds | binds | R370H-VDR, VP16 fusion (receptor, UniProt P11473 1-427) MEAMAASTSLPDPGDFDRNVPRICGVCGDRATGFHFNAMTCEGCKGFFRRSMKRKALFTCPFNGDCRITKDNRRHCQACRLKRCVDIGMMKEFILTDEEVQRKREMILKRKEEEALKDSLRPKLSEEQQRIIAILLDAHHKTYDPTYSDFCQFRPPVRVNDGGGSHPSRPNSRHTPSFSGDSSSSCSDHCITSSDMMDSSSFSNLDLSEEDSDDPSVTLELSQLSMLPHLADLVSYSIQKVIGFAKMIPGFRDLTSEDQIVLLKSSAIEVIMLRSNESFTMDDMSWTCGNQDYKYRVSDVTKAGHSLELIEPLIKFQVGLKKLNLHEEEHVLLMAICIVSPDRPGVQDAALIEAIQDRLSNTLQTYIRCHHPPPGSHLLYAKMIQKLADLRSLNEEHSKQYRCLSFQPECSMKLTPLVLEVFGNEIS
